Test results reported in article PMC11321020.
These are yes or no findings as the source states them, for the method shown. Binding seen in cells or lysates may run through a third protein. Some binding calls cover weakened binding; strength is not graded here.

Sequences of proteins named here, by UniProt entry; tags and fusion partners are left off.
UniProt P16110: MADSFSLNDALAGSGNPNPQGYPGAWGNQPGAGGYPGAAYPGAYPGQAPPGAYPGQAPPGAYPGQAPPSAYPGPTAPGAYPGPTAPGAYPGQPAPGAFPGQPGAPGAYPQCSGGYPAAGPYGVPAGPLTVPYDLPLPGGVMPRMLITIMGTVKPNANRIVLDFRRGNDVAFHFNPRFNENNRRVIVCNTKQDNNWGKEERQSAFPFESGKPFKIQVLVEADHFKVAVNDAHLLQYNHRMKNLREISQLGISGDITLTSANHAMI

Molecular target: T1, mouse-derived TREM2 (exogenous CO-IP construct) (mouse) (UniProt Q99NH8)
T1 sequence: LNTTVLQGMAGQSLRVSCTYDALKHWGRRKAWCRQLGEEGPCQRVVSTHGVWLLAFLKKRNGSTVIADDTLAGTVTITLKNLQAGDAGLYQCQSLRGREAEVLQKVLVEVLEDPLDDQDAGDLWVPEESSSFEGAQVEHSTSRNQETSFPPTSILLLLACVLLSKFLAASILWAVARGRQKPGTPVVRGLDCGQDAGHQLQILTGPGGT
Assay: co-IP; exogenous CO-IP of mouse-derived TREM2 and galectin-3 in 293T (Supplementary Fig. 3A-C); precipitating antibody not shown

“mouse-derived galectin-3 (exogenous CO-IP construct) (from UniProt P16110 1-264) (ligand)” was tested, and the binding was “binds”.
